Experimental findings from article PMC7819943, “Rice protein-binding microarrays: a tool to detect cis-acting elements near promoter regions in rice” are described below.

Sequences of proteins named here, by UniProt entry; tags and fusion partners are left off.
UniProt Q0JBA9, entry or part of it: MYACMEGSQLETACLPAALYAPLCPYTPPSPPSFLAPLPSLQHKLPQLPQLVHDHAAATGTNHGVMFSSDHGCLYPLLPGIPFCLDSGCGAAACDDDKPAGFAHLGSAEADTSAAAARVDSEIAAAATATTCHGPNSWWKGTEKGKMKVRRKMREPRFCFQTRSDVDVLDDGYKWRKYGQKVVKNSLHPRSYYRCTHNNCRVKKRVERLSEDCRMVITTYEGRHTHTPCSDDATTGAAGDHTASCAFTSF

The other results are listed elsewhere or left out.

This assay concerns the target OsWRKY34 (Oryza sativa, UniProt Q0JBA9 1-250). Kind of assay: protein-binding microarray (RPBM); PBS, 2% BSA, 51.3 ng/ul salmon testes DNA, 50 uM zinc acetate, 200 nM TF, 25 C, 1 h; high values mean tight binding. Particulars: protein: recombinant; tags: N-terminal polyhistidine and DsRed monomer fusion (pET32a); label: CyDye5-dUTP incorporated in the synthesized complementary strand; 3' TTTTT single-stranded linker to array surface; dsDNA, one strand shown. A digest of the protocol:
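In PBS with 2% BSA, salmon testes DNA and 50 µM zinc acetate, 200 nM protein was incubated on a custom Agilent array at 25 °C for 1 h and then washed off. The array had been made double-stranded by primer extension with Cy5-dUTP and blocked with 2% BSA. The proteins were transcription factors fused N-terminally to polyhistidine and DsRed, expressed in E. coli BL21-CodonPlus and purified on Ni–NTA. The binding signal is per-feature fluorescence intensity (arbitrary units) from an Axon 4000B scanner.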
On to “TCACATTTCAGTTTAGGGGAGTTGGTGGTAGGAGTGCAGACGGAGTCACCTAGTGCAG”, for which the binding signal was 8490 fluorescence intensity (a.u.).

Regarding “ACCATTGGCCTCGCCGCTCACGCGCACCAGCGTCCCACACCGGAGTCACCTAGTGCAG”, the binding signal is 10500 fluorescence intensity (a.u.).

With “CCGCCGAACCACCGCCATCTCCCGTGTTCTTGTACCAAACCGGAGTCACCTAGTGCAG”, the binding signal is 8780 fluorescence intensity (a.u.).

As to “GATCAGATCACGTGCCTATGCAGAGCATCTTCTTGGTTCTCGGAGTCACCTAGTGCAG”, the binding signal is 8450 fluorescence intensity (a.u.).

For “CAATCACGCCCATTTCCATTTCCAGCTGCTGCATCCACCTCGGAGTCACCTAGTGCAG”, the binding signal was 8750 fluorescence intensity (a.u.).

Consider “TCAAACGTTTATCAAAAAGTCAACGGCGTCATACATTAAACGGAGTCACCTAGTGCAG”, for which the binding signal was 11100 fluorescence intensity (a.u.).

On to “GTTTTCCCGTATTAAAAGCCTACCTACCCACATAAATCCACGGAGTCACCTAGTGCAG”, for which the binding signal was 8830 fluorescence intensity (a.u.).

Take “CAGTCGAGTCATTGGGCCGGGCCCATATCTTTCTTCTAAACGGAGTCACCTAGTGCAG”: the binding signal was 8110 fluorescence intensity (a.u.).

Regarding “ACCTAATATTTCCCGTGTTCTCTTCTACGAAAACGTATTTCGGAGTCACCTAGTGCAG”, the binding signal was 10500 fluorescence intensity (a.u.).

For the sequence “CACTTCCCTTAACTAGTGTATCATTTCCGTTTTCACGCATCGGAGTCACCTAGTGCAG”, the binding signal was 8500 fluorescence intensity (a.u.).

On to “ACCCATCCATCCCTAGCTTCCTCGCTGCTTCGCCCGCCACCGGAGTCACCTAGTGCAG”, for which the binding signal is 9110 fluorescence intensity (a.u.).

Turning to “GCGTCTTGGTGTATATTTGAATATTTCACTCTATTTTTATCGGAGTCACCTAGTGCAG”, the binding signal is 9490 fluorescence intensity (a.u.).

Turning to “CTCGAGGCGCCGCCCAATTCGTTCCTCCACGATTTCTTTTCGGAGTCACCTAGTGCAG”, the binding signal is 9650 fluorescence intensity (a.u.).

“CACCATCATTGTCATCAGAAACTGCTCTTCTTTCATGTATCGGAGTCACCTAGTGCAG”: the binding signal was 9430 fluorescence intensity (a.u.).

“GCCCAGTTCCTAGTTGCTTCTCTCTCCCTCATTAATAAAACGGAGTCACCTAGTGCAG”: the binding signal was 9380 fluorescence intensity (a.u.).

For “AACATTTCTCTATACACCACTTTCAGGCATTTGCTGTTTTCGGAGTCACCTAGTGCAG”, the binding signal was 13000 fluorescence intensity (a.u.).

As to “ATGCTTCATCTAAAAGATCATTCATGCAATTTTTATTTTTCGGAGTCACCTAGTGCAG”, the binding signal was 10100 fluorescence intensity (a.u.).

On to “CCAAATCTCACGCGGCGCTTTCTCTCTCTCCCGCGAGATGCGGAGTCACCTAGTGCAG”, for which the binding signal is 10000 fluorescence intensity (a.u.).

Consider “CCTGCCTGCCCAGCGATTCTTCCCACGATTTCCTTTCCTGCGGAGTCACCTAGTGCAG”, for which the binding signal is 10300 fluorescence intensity (a.u.).

Consider “ACCCTCCGCCCCGCCCGCCACTCCCGCCATCCCGGCCGCCCGGAGTCACCTAGTGCAG”, for which the binding signal is 12400 fluorescence intensity (a.u.).

On to “ACCCAAAGCCACCCGCAACAACCGACGACGACGACGACCGCGGAGTCACCTAGTGCAG”, for which the binding signal was 18200 fluorescence intensity (a.u.).

As to “TTTTATGGGTCTTTTTTTACTTCAACATTATATATATATACGGAGTCACCTAGTGCAG”, the binding signal was 10700 fluorescence intensity (a.u.).

Take “ATCTATTGTTGTGGCTTCGCTGGTCAAATTTGCTGTTCTACGGAGTCACCTAGTGCAG”: the binding signal is 10000 fluorescence intensity (a.u.).

As for “AACCAAATCCTTGTTCTAGTCTTGTATCACCCGCATCTGCCGGAGTCACCTAGTGCAG”, the binding signal is 10100 fluorescence intensity (a.u.).

On to “TGGACTGGTGGTGTACTCGTGTTGAGTCTGCCCTCGTAACCGGAGTCACCTAGTGCAG”, for which the binding signal was 12500 fluorescence intensity (a.u.).

As for “TTGCATGTTTTGTTATCTTTGCCAGTTTTTGCATGTTTCTCGGAGTCACCTAGTGCAG”, the binding signal is 10300 fluorescence intensity (a.u.).

Turning to “TCTAGTCGGCGTGCACGCGATCACGCCGCACTTTTCCAACCGGAGTCACCTAGTGCAG”, the binding signal is 8150 fluorescence intensity (a.u.).

Consider “ACTAGCTCATTTCACCCGTTGTTATGTAAACTCTTTAGCCCGGAGTCACCTAGTGCAG”, for which the binding signal was 10400 fluorescence intensity (a.u.).

In the case of “ATGTTGGTCTCACTTATCGCATCATCTAAAATTGGACACTCGGAGTCACCTAGTGCAG”, the binding signal is 8280 fluorescence intensity (a.u.).

Turning to “ATGCTTTGTTGTTTCTCTTTTTTTTTTTCCGGAATTGCTACGGAGTCACCTAGTGCAG”, the binding signal was 8940 fluorescence intensity (a.u.).

Regarding “AACAACCGGTAATTACTCCCTCGGTCCCTCAACATTTGACCGGAGTCACCTAGTGCAG”, the binding signal was 10400 fluorescence intensity (a.u.).

As for “CTCTCTCTCTCTCTCAGCCTCATATGAGCCGTGTCTGCCTCGGAGTCACCTAGTGCAG”, the binding signal is 8200 fluorescence intensity (a.u.).

As for “TGAATAATCTTACCCCAACTTGGCCAATTAATGTTTGTTACGGAGTCACCTAGTGCAG”, the binding signal was 8540 fluorescence intensity (a.u.).

Regarding “ATCGGTGATGTGGGAGGGGATACTAGAAAGGAGGATGAAGCGGAGTCACCTAGTGCAG”, the binding signal was 9200 fluorescence intensity (a.u.).

With “GGAGGCATGATGGCGGCATGGTGGAGGGTGGGGTGACGTGCGGAGTCACCTAGTGCAG”, the binding signal was 12000 fluorescence intensity (a.u.).

For the sequence “ACCTCGTACCTCGCCGCTGTTCCGTTCCGTGCTCTGTGTCCGGAGTCACCTAGTGCAG”, the binding signal is 18700 fluorescence intensity (a.u.).

In the case of “CACTACTCCACCCTACATGCCAGATCCGGTCAACAACAATCGGAGTCACCTAGTGCAG”, the binding signal was 10000 fluorescence intensity (a.u.).

Consider “CTCAGTATTGGGTTGGGTGGTGGTGGCGGCGGTGGCAGTGCGGAGTCACCTAGTGCAG”, for which the binding signal was 13700 fluorescence intensity (a.u.).

Take “GTAAGTCATTCTAGCATTTTCCACATTCATATTAATGTTACGGAGTCACCTAGTGCAG”: the binding signal is 8840 fluorescence intensity (a.u.).

Take “AATCCACTGTATTTATCGTTTCCACCACATATTTTCCTCTCGGAGTCACCTAGTGCAG”: the binding signal is 14000 fluorescence intensity (a.u.).

Consider “GTCGCCATCAACTCCGAGTCGACGTCGTCCTTCCTGCCGTCGGAGTCACCTAGTGCAG”, for which the binding signal is 9570 fluorescence intensity (a.u.).

Consider “GGATTTGATTTGGAAGGATTTGGATTCGGAAATGAGCTCGCGGAGTCACCTAGTGCAG”, for which the binding signal was 8210 fluorescence intensity (a.u.).
